Source: patent US9260484B2, “Small molecule composite surfaces as inhibitors of protein-protein interactions” (Ohio State Innovation Foundation, priority 2011, dated 2016)
At least one structure is not confirmed: it was looked up by name or label, or the drawing left a doubt.

Sequences of proteins named here, by UniProt entry; tags and fusion partners are left off.
UniProt P62942, whole entry: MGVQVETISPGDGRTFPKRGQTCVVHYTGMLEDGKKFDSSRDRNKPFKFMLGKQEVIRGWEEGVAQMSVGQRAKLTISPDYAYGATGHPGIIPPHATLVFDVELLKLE

Target: T1, FKBP (Homo sapiens, UniProt P62942)
T1 construct: 200 nM recombinant FKBP
Test: fluorescence polarization (FA) competition assay for binding to FKBP
Conditions: Table 2; converted from IC50 by Cheng-Prusoff equation
Procedure: To facilitate solid-phase synthesis, an invariant glutamine was added to the C-terminal side of the R^1 residue, for the purpose of backbone peptide cyclization and providing an anchor for attachment to the solid support. For this set of compounds, the dipeptide Ala-Ala was used as the effector domain. The rapalogs were tested for binding to FKBP by a fluorescence polarization competition assay^22,23. SLF^24, was labeled with the fluorescent dye fluorescein^23. Binding of the labeled ligand to FKBP increases its fluorescence anisotropy (FA) values. Addition of an unlabeled ligand to the reaction inhibits the binding of SLF to FKBP and therefore decreases the FA values. […] Subsequently, the IC50 values were converted into KI values based on the Cheng-Prusoff equation.
A previously reported synthetic ligand of FKBP^46 (SLF in FIG. 2), was labeled with the fluorescent dye fluorescein^20. Binding of the labeled ligand to FKBP increases its fluorescence anisotropy (FA) value.
The fluorescence polarization based competition assay was performed in a 384-well plate. […] After the addition of the rapalogs as the last component, the binding reactions were incubated for 1 h at room temperature to reach binding equilibrium. Anisotropy values were measured on a FlexStation 3 plate reader (Molecular Devices, Sunnyvale, Calif.).

## C[C@@H]1NC(=O)[C@H](C)NC(=O)[C@H](CCC(N)=O)NC(=O)C[C@@H](CCc2ccccc2)NC(=O)[C@@H]2CCCCN2C(=O)C(=O)C(C)(C)COC(=O)[C@H](Cc2ccccc2)NC1=O [Compound 2k]
  Ki: 500 ± 100 nM
